Data as given in the supplement of paper PMC12823440, “Inhibitors supercharge kinase turnover through native proteolytic circuits” (Nature, 2025).
Counter-ions that a name gives are not always drawn. This is one part of the list. Hit calls seldom repeat between salt and free forms of one compound.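 Kinases, fused to nanoluciferase, were expressed in K562 cells; luminescence was measured every 4 h from 2 to 18 h as percent of control (DMSO = 100%, positive control = 0%). A time point is decreased if signal falls significantly (2 sigma). Hits were called by the authors by a rule that is not shown; the count of time points alone does not decide it.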

Sequences of proteins named here, by UniProt entry; tags and fusion partners are left off. A change or cut given only in a name is not applied to a line headed by its entry.
UniProt O75460: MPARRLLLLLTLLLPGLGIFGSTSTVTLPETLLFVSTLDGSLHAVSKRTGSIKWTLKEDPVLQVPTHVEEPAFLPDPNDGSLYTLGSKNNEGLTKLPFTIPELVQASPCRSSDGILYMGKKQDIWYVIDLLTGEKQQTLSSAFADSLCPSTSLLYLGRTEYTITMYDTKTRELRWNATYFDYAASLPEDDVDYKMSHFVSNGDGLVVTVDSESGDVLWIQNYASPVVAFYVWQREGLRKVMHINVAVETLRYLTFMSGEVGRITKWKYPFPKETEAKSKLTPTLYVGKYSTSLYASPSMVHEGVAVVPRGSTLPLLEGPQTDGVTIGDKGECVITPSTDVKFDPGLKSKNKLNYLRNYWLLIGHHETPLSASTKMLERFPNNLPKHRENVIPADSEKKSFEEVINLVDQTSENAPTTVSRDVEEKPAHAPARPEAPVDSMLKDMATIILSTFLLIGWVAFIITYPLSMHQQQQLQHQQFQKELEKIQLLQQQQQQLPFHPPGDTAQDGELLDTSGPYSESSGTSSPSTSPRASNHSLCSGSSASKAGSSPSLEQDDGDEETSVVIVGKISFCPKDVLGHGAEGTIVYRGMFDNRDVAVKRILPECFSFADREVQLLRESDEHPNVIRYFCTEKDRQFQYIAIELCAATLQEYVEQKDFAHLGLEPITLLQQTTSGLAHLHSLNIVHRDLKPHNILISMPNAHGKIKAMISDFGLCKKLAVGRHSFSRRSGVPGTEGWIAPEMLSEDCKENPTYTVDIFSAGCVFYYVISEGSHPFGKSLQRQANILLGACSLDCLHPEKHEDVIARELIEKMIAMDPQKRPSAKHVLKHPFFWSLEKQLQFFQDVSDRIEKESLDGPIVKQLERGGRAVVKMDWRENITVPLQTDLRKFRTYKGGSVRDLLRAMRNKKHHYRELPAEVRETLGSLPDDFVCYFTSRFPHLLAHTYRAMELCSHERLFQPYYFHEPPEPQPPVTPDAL
UniProt P11362, whole entry, looked up: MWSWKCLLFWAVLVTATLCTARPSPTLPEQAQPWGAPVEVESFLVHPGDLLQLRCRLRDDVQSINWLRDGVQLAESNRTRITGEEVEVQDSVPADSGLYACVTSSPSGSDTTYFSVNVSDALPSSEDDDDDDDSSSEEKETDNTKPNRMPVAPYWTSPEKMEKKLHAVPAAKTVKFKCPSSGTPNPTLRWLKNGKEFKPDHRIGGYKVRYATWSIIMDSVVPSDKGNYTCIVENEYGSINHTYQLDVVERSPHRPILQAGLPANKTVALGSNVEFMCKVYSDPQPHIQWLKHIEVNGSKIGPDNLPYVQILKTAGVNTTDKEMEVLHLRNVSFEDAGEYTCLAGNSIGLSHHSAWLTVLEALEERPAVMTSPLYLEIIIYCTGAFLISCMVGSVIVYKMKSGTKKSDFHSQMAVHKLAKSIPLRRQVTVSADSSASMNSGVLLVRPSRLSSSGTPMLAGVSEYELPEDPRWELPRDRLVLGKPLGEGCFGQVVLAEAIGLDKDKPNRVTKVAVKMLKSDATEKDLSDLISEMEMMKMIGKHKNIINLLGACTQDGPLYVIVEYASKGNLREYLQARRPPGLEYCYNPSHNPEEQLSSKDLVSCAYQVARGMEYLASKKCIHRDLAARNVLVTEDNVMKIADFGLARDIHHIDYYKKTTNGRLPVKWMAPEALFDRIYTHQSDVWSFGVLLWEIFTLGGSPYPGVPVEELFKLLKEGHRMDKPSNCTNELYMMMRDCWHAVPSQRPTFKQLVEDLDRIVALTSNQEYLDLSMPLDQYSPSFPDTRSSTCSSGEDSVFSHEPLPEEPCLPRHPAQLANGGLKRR
UniProt P22607, whole entry, looked up: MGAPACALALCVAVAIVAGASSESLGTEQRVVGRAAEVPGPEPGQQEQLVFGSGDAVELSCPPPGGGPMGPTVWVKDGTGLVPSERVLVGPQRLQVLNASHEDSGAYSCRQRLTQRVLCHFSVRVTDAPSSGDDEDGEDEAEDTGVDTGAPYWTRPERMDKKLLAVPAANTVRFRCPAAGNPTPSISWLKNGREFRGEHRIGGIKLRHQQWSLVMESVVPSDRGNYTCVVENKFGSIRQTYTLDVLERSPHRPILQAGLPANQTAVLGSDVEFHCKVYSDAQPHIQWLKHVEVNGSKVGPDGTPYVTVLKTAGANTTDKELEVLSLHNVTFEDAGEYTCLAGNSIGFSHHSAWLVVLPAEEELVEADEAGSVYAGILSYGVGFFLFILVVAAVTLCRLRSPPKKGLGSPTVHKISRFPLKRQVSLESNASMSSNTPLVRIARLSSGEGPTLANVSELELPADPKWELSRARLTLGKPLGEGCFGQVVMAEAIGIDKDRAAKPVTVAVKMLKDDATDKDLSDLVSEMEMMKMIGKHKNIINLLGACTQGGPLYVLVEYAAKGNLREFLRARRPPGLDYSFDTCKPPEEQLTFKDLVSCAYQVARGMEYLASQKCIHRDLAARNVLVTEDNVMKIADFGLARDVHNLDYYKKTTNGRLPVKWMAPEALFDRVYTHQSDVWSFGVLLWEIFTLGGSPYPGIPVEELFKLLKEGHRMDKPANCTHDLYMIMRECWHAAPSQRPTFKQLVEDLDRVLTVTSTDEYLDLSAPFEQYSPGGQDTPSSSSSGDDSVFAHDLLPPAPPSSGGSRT
UniProt P49840: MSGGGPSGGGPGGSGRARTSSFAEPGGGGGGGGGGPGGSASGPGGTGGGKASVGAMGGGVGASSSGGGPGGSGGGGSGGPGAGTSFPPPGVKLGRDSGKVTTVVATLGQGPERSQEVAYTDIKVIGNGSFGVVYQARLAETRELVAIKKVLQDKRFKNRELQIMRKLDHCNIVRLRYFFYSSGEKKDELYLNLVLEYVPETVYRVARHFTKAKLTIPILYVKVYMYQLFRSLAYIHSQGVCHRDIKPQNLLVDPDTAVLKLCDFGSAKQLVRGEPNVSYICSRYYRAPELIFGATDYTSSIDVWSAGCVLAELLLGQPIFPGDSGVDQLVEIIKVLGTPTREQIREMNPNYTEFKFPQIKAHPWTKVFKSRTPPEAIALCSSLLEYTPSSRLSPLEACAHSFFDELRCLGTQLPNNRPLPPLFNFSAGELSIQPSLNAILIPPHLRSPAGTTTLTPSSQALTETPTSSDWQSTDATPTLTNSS
UniProt Q9Y616: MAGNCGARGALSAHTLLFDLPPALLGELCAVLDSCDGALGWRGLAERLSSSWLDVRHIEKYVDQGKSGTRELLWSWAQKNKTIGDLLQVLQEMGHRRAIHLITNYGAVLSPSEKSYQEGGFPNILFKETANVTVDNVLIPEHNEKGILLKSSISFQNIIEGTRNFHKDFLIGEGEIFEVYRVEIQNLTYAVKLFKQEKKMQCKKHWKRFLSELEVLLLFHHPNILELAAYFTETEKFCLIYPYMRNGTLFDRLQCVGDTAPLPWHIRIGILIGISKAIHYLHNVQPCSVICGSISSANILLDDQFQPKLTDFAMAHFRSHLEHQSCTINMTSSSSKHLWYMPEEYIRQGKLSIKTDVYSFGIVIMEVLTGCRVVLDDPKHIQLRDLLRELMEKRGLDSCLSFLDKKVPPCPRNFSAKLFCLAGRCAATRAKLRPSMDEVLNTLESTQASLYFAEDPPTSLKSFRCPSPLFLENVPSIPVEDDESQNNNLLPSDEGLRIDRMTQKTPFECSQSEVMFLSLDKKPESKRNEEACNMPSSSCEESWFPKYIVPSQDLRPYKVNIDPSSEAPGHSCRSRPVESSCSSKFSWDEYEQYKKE
UniProt Q8IWU2: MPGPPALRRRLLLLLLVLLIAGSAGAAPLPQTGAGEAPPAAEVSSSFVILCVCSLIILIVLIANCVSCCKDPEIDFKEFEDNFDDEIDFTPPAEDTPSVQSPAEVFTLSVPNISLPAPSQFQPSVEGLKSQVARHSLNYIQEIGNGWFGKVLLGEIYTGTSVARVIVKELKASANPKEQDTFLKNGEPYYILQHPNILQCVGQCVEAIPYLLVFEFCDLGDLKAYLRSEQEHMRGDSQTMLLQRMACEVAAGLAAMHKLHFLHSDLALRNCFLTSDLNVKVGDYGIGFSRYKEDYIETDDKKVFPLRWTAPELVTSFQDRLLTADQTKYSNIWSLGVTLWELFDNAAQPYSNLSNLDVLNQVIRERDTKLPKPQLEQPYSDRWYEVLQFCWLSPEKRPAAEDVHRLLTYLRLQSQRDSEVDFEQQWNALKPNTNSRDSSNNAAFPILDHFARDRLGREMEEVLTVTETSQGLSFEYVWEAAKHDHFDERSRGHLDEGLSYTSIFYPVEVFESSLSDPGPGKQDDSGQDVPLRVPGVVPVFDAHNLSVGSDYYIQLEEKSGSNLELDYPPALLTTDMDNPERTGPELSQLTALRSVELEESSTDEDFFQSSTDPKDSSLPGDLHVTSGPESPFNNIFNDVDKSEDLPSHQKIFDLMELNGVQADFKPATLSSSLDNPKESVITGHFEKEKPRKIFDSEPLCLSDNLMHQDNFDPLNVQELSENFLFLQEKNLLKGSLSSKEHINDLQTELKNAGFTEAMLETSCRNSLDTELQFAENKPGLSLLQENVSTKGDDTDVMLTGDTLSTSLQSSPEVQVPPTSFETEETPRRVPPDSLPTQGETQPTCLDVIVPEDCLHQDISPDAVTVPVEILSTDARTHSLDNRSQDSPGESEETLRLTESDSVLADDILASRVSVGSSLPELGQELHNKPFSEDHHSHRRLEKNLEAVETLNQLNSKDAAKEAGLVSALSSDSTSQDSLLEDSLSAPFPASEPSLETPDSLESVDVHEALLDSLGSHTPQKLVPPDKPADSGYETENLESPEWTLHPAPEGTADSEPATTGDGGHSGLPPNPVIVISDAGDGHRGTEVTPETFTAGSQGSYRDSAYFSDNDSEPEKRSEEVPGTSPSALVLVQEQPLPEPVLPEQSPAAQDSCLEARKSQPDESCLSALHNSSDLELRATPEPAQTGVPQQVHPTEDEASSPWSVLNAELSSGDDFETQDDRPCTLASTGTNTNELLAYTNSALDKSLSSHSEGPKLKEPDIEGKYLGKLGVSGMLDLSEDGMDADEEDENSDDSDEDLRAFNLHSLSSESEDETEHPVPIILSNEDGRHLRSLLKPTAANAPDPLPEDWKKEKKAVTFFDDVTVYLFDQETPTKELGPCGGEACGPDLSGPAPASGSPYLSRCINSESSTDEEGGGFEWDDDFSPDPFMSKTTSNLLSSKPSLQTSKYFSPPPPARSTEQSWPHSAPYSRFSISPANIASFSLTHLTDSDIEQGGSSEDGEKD
UniProt P07948: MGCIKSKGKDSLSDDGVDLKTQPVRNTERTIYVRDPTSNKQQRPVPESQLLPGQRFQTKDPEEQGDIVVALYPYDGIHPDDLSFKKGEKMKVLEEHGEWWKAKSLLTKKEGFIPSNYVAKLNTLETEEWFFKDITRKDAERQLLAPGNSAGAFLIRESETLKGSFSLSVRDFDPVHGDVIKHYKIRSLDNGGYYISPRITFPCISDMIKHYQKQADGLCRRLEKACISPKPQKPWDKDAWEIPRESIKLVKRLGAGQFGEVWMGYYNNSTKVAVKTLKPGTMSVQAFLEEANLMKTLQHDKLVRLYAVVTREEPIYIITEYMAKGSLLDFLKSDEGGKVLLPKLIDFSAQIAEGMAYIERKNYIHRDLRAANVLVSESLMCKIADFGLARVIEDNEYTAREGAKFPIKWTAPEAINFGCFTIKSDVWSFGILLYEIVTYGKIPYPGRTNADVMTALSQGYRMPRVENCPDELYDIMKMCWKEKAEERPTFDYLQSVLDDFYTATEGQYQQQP
UniProt Q12851: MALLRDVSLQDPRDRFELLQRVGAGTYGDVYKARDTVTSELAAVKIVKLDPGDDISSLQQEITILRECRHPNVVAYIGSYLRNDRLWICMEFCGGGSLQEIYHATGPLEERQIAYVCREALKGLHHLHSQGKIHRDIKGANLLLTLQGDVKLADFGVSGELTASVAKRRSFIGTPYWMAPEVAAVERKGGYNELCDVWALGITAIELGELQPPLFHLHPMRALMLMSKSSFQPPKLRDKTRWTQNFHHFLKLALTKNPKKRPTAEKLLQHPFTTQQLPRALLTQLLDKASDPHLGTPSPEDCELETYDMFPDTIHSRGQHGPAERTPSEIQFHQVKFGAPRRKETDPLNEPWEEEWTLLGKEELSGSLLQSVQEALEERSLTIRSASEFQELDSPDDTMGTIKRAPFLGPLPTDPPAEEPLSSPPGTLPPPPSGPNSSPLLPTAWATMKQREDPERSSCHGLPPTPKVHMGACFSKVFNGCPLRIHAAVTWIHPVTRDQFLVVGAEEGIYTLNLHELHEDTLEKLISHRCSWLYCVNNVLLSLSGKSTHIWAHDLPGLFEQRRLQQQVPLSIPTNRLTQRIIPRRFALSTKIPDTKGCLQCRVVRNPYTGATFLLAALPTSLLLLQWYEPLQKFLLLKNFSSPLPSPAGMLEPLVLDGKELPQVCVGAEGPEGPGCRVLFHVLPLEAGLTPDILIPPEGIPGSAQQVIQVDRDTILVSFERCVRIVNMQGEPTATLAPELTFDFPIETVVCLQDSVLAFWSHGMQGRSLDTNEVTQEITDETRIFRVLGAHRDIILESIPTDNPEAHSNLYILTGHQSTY

Experiments:
Test in all cases: kinase-Nluc reporter destabilization hit call (1 = scored as downregulated) (binary); higher = compound decreases kinase abundance
Conditions in all cases: K562, 2-18 h
ERN1 = ERN1 (UniProt O75460)
FGFR1 = FGFR1 (UniProt P11362)
FGFR2 = FGFR2 (UniProt P21802)
FGFR3 = FGFR3 (UniProt P22607)
FGR = FGR (UniProt P09769)
FLT3 = FLT3 (UniProt P36888)
FYN = FYN (UniProt P06241)
GSK3A = GSK3A (UniProt P49840)
HER2 = HER2 (UniProt P04626)
INSRR = INSRR (UniProt P14616)
IRAK3 = IRAK3 (UniProt Q9Y616)
JAK1 = JAK1 (UniProt P23458)
LCK = LCK (UniProt P06239)
LIMK1 = LIMK1 (UniProt P53667)
LIMK2 = LIMK2 (UniProt P53671)
LMTK2 = LMTK2 (UniProt Q8IWU2)
LYN = LYN (UniProt P07948)
MAP2K1 = MAP2K1 (UniProt Q02750)
MAP2K2 = MAP2K2 (UniProt P36507)
MAP4K2 = MAP4K2 (UniProt Q12851)

Measured: kinase-Nluc reporter destabilization hit call

CCCC(=O)Nc1ncnc2c1ncn2[C@@H]1O[C@@H]2COP(=O)(O)O[C@H]2[C@H]1OC(=O)CCC [Bucladesine (sodium)]
inactive: ERN1; 10 µM 0 | FGFR1; 10 µM 0 | FGFR2; 10 µM 0 | FGFR3; 10 µM 0 | FGR; 10 µM 0 | FLT3; 10 µM 0 | FYN; 10 µM 0 | GSK3A; 10 µM 0 | HER2; 10 µM 0 | INSRR; 10 µM 0 | IRAK3; 10 µM 0 | JAK1; 10 µM 0 | LCK; 10 µM 0 | LIMK1; 10 µM 0 | LIMK2; 10 µM 0 | LMTK2; 10 µM 0 | LYN; 10 µM 0 | MAP2K1; 10 µM 0 | MAP2K2; 10 µM 0 | MAP4K2; 10 µM 0

CNC(=O)c1cc(Oc2ccc(NC(=O)Nc3ccc(Cl)c(C(F)(F)F)c3)c(F)c2)ccn1 [Regorafenib (monohydrate)]
inactive: ERN1; 2.5 µM 0 | FGFR1; 2.5 µM 0 | FGFR2; 2.5 µM 0 | FGFR3; 2.5 µM 0 | FGR; 2.5 µM 0 | FLT3; 2.5 µM 0 | FYN; 2.5 µM 0 | GSK3A; 2.5 µM 0 | HER2; 2.5 µM 0 | INSRR; 2.5 µM 0 | IRAK3; 2.5 µM 0 | JAK1; 2.5 µM 0 | LCK; 2.5 µM 0 | LIMK1; 2.5 µM 0 | LIMK2; 2.5 µM 0 | LMTK2; 2.5 µM 0 | LYN; 2.5 µM 0 | MAP2K1; 2.5 µM 0 | MAP2K2; 2.5 µM 0 | MAP4K2; 2.5 µM 0

CC(=O)N[C@H](Cc1ccc(O)cc1)C(=O)N[C@H](CCCN=C(N)N)C(=O)N[C@H](Cc1ccccc1)C(N)=O
inactive: ERN1; 10 µM 0 | FGFR1; 10 µM 0 | FGFR2; 10 µM 0 | FGFR3; 10 µM 0 | FGR; 10 µM 0 | FLT3; 10 µM 0 | FYN; 10 µM 0 | GSK3A; 10 µM 0 | HER2; 10 µM 0 | INSRR; 10 µM 0 | IRAK3; 10 µM 0 | JAK1; 10 µM 0 | LCK; 10 µM 0 | LIMK1; 10 µM 0 | LIMK2; 10 µM 0 | LMTK2; 10 µM 0 | LYN; 10 µM 0 | MAP2K1; 10 µM 0 | MAP2K2; 10 µM 0 | MAP4K2; 10 µM 0

CC(C)Oc1ccc(-c2nn([C@@H](C)c3oc4ccc(F)cc4c(=O)c3-c3cccc(F)c3)c3ncnc(N)c23)cc1F [Umbralisib (hydrochloride)]
inactive: ERN1; 2.5 µM 0 | FGFR1; 2.5 µM 0 | FGFR2; 2.5 µM 0 | FGFR3; 2.5 µM 0 | FGR; 2.5 µM 0 | FLT3; 2.5 µM 0 | FYN; 2.5 µM 0 | GSK3A; 2.5 µM 0 | HER2; 2.5 µM 0 | INSRR; 2.5 µM 0 | IRAK3; 2.5 µM 0 | JAK1; 2.5 µM 0 | LCK; 2.5 µM 0 | LIMK1; 2.5 µM 0 | LIMK2; 2.5 µM 0 | LMTK2; 2.5 µM 0 | LYN; 2.5 µM 0 | MAP2K1; 2.5 µM 0 | MAP2K2; 2.5 µM 0 | MAP4K2; 2.5 µM 0

O=C(c1nn(-c2ccc(CN3CCOCC3)cc2)c2c1CS(=O)(=O)c1c(F)cccc1-2)N1CCOCC1
inactive: ERN1; 10 µM 0 | FGFR1; 10 µM 0 | FGFR2; 10 µM 0 | FGFR3; 10 µM 0 | FGR; 10 µM 0 | FLT3; 10 µM 0 | FYN; 10 µM 0 | GSK3A; 10 µM 0 | HER2; 10 µM 0 | INSRR; 10 µM 0 | IRAK3; 10 µM 0 | JAK1; 10 µM 0 | LCK; 10 µM 0 | LIMK1; 10 µM 0 | LIMK2; 10 µM 0 | LMTK2; 10 µM 0 | LYN; 10 µM 0 | MAP2K1; 10 µM 0 | MAP2K2; 10 µM 0 | MAP4K2; 10 µM 0

Cc1ccc(NC(=O)c2ccc(CN3CCN(C)CC3)cc2)cc1Nc1nc(-c2cccnc2)cs1 [Masitinib]
inactive: ERN1; 2.5 µM 0 | FGFR1; 2.5 µM 0 | FGFR2; 2.5 µM 0 | FGFR3; 2.5 µM 0 | FGR; 2.5 µM 0 | FLT3; 2.5 µM 0 | FYN; 2.5 µM 0 | GSK3A; 2.5 µM 0 | HER2; 2.5 µM 0 | INSRR; 2.5 µM 0 | IRAK3; 2.5 µM 0 | JAK1; 2.5 µM 0 | LCK; 2.5 µM 0 | LIMK1; 2.5 µM 0 | LIMK2; 2.5 µM 0 | LMTK2; 2.5 µM 0 | LYN; 2.5 µM 0 | MAP2K1; 2.5 µM 0 | MAP2K2; 2.5 µM 0 | MAP4K2; 2.5 µM 0

Cc1cccc(-c2[nH]c(CNc3ccccc3F)nc2-c2ccc3ncnn3c2)n1 [Vactosertib (Hydrochloride)]
inactive: ERN1; 2.5 µM 0 | FGFR1; 2.5 µM 0 | FGFR2; 2.5 µM 0 | FGFR3; 2.5 µM 0 | FGR; 2.5 µM 0 | FLT3; 2.5 µM 0 | FYN; 2.5 µM 0 | GSK3A; 2.5 µM 0 | HER2; 2.5 µM 0 | INSRR; 2.5 µM 0 | IRAK3; 2.5 µM 0 | JAK1; 2.5 µM 0 | LCK; 2.5 µM 0 | LIMK1; 2.5 µM 0 | LIMK2; 2.5 µM 0 | LMTK2; 2.5 µM 0 | LYN; 2.5 µM 0 | MAP2K1; 2.5 µM 0 | MAP2K2; 2.5 µM 0 | MAP4K2; 2.5 µM 0

CC(C)Oc1ccc(-c2nn([C@@H](C)c3oc4ccc(F)cc4c(=O)c3-c3cccc(F)c3)c3ncnc(N)c23)cc1F [Umbralisib]
inactive: ERN1; 2.5 µM 0 | FGFR1; 2.5 µM 0 | FGFR2; 2.5 µM 0 | FGFR3; 2.5 µM 0 | FGR; 2.5 µM 0 | FLT3; 2.5 µM 0 | FYN; 2.5 µM 0 | GSK3A; 2.5 µM 0 | HER2; 2.5 µM 0 | INSRR; 2.5 µM 0 | IRAK3; 2.5 µM 0 | JAK1; 2.5 µM 0 | LCK; 2.5 µM 0 | LIMK1; 2.5 µM 0 | LIMK2; 2.5 µM 0 | LMTK2; 2.5 µM 0 | LYN; 2.5 µM 0 | MAP2K1; 2.5 µM 0 | MAP2K2; 2.5 µM 0 | MAP4K2; 2.5 µM 0
